Counter-ions that a name gives are not always drawn. The name of at least one read-out is uncertain.
System: NMDA receptor
Test: NMDA receptor binding assay using [^3 H]CPP as antagonist ligand
Conditions: 100 µM

Activity (CPP Binding) % at 10^-4 M [%]	Compound
15	NC(Cc1cccc(P(=O)(O)O)c1)C(=O)O (racemic) [Example V, Dl-Phenylalanine, 3-Phosphono]
10	NC(Cc1ccc(P(=O)(O)O)cc1)C(=O)O (racemic) [Example VI, Dl-Phenylalanine, 4-Phosphono]
4	NC(C(=O)O)c1ccc(CCP(=O)(O)O)cc1 (racemic) [IX, (±)-α-Amino-4-(2-Phosphonoethyl)Benzeneacetic Acid]
20	NC(C(=O)O)c1ccc(CCCP(=O)(O)O)cc1 (racemic) [Example I, Benzeneacetic Acid, α-Amino-4-(3-Phosphonopropyl) -Hydrochloride, (±)-]
90	NC(C(=O)O)c1cccc(P(=O)(O)O)c1 (racemic) [Example VI A, (±)-α-Amino-3-Phosphonobenzeneacetic Acid]
